± gives the standard deviation of the averaged measurements. Single values are uncertain here, since repeats match poorly.
Compound: CC[C@@H](C)Nc1cc(C(=O)N[C@H]2C[C@H]3CC[C@@H](C2)N3c2ccc(C(=O)C3CC3)cn2)c(C)cc1C(N)=O [XL888]
Assay: phosphopeptide melting temperature shift (XL888 minus DMSO); higher = stabilised by drug treatment
Conditions: 100 µM; treatment time 2 h; layout: intact cells; SK-Mel 24
Procedure: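 Phospho-TPP in intact SK-Mel 24 cells treated with 100 uM XL888 or DMSO for 2 h, heated at 10 temperatures (37-67 C) for 3 min, soluble fraction TMT10plex-labelled and TiO2 phospho-enriched. Melting curves were fitted per phosphopeptide; the value is the melting point difference (drug minus vehicle) in each of two biological replicates.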

By UniProt entry, the sequences of proteins in these tests, tags left out. Where a name states a change or a piece, a line headed by the entry shows the natural chain unless it says otherwise.
UniProt P13796: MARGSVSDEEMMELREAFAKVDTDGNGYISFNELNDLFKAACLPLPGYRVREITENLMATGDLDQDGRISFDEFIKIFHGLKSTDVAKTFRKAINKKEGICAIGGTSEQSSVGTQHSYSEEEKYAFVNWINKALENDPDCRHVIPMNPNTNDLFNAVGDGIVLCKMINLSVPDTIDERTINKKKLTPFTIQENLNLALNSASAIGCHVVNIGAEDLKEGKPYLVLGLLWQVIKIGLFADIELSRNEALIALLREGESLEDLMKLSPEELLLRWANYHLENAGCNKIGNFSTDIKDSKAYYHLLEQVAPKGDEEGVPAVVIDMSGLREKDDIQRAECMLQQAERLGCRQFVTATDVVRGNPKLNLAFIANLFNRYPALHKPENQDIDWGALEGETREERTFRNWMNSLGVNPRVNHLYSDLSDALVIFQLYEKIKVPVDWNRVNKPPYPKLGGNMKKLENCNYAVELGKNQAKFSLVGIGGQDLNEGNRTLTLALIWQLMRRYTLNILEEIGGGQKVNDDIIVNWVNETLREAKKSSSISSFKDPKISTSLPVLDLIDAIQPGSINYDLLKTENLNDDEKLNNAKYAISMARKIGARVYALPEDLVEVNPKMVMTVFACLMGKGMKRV
UniProt Q9UHB6: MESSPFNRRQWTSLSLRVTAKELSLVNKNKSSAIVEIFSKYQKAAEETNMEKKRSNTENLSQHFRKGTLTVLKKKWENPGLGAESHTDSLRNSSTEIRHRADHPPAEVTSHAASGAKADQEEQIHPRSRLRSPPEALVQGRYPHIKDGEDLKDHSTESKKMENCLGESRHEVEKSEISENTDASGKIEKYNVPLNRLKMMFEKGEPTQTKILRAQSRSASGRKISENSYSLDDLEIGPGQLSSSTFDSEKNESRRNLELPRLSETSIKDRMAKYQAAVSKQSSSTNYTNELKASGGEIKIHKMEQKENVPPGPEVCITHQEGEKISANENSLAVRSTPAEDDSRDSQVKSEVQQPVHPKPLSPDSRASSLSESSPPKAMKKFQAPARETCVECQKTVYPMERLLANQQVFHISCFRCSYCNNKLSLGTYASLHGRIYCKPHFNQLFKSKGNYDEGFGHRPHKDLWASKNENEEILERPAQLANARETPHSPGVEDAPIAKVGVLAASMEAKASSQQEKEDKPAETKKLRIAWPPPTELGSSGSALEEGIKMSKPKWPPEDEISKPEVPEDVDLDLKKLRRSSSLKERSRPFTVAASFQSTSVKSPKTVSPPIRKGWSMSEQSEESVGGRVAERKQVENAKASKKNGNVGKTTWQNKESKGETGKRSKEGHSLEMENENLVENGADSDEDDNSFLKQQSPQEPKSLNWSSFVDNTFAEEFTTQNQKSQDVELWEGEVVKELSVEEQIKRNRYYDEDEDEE
UniProt Q92614: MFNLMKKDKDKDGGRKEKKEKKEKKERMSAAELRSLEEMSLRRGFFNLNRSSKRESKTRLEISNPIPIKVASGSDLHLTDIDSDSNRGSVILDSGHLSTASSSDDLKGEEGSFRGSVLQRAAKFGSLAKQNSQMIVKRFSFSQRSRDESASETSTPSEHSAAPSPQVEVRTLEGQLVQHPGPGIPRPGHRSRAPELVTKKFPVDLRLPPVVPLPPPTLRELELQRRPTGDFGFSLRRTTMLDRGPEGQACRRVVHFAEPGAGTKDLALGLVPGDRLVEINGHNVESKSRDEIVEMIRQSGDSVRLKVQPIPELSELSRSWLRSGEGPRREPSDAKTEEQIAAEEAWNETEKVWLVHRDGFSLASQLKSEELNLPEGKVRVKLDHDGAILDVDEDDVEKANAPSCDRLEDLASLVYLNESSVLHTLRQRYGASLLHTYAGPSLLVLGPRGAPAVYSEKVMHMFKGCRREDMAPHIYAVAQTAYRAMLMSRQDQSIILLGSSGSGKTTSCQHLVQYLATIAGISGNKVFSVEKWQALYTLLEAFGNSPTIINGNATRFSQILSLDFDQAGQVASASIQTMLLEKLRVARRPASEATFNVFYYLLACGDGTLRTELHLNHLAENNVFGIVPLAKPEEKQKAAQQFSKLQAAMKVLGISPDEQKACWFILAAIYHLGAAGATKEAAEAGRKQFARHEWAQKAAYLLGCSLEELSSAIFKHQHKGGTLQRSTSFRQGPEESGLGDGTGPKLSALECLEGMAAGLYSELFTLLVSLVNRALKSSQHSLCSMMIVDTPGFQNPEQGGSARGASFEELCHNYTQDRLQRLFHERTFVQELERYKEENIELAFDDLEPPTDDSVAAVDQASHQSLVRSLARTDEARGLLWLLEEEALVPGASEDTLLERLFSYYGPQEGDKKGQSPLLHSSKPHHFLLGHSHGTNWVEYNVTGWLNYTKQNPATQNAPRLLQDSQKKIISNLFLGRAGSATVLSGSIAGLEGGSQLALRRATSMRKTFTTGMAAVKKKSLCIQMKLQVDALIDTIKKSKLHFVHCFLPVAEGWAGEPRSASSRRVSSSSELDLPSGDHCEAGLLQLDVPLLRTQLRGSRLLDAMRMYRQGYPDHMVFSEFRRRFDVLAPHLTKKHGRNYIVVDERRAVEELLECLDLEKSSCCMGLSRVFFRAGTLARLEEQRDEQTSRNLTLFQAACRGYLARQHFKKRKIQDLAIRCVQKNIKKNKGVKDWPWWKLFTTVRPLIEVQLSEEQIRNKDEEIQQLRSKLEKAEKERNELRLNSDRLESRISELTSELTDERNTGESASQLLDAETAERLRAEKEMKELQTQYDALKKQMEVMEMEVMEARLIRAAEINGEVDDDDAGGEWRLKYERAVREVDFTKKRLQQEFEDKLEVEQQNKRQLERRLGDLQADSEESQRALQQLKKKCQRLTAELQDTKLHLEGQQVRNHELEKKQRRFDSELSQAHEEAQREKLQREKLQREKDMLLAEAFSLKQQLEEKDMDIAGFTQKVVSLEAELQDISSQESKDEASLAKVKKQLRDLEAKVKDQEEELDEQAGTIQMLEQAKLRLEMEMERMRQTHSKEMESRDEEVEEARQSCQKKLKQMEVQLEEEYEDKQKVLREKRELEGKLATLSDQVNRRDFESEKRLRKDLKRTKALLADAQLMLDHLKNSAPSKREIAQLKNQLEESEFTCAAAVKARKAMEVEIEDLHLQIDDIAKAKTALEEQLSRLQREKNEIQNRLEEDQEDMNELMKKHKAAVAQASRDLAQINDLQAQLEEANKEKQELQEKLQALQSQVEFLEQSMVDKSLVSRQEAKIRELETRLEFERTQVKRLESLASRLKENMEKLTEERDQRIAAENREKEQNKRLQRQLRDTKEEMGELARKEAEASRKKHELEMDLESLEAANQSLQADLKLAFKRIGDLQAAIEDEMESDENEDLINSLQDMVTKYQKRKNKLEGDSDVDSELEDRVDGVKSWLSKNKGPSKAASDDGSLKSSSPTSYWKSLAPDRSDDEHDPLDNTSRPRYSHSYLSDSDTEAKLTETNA
UniProt P06748, whole entry, looked up: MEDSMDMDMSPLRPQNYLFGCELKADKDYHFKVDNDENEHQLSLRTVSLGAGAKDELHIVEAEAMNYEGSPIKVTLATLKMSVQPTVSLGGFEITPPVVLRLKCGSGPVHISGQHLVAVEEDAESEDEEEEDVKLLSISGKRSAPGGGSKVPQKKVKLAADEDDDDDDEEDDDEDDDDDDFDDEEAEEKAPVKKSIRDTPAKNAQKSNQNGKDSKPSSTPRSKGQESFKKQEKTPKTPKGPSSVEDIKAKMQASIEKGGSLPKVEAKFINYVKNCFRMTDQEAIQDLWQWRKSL
UniProt Q9BZD4: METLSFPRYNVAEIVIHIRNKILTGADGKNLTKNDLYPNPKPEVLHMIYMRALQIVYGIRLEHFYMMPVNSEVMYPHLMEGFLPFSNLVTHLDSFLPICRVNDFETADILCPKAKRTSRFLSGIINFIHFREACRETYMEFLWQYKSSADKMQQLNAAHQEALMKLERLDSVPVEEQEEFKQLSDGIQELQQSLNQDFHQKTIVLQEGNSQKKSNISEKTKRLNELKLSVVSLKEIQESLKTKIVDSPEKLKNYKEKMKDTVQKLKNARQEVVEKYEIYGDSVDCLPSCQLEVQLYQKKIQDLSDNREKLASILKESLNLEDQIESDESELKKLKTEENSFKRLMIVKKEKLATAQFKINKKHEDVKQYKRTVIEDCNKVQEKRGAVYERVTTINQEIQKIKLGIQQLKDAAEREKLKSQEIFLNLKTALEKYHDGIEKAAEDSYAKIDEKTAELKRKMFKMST
UniProt Q9UKX7: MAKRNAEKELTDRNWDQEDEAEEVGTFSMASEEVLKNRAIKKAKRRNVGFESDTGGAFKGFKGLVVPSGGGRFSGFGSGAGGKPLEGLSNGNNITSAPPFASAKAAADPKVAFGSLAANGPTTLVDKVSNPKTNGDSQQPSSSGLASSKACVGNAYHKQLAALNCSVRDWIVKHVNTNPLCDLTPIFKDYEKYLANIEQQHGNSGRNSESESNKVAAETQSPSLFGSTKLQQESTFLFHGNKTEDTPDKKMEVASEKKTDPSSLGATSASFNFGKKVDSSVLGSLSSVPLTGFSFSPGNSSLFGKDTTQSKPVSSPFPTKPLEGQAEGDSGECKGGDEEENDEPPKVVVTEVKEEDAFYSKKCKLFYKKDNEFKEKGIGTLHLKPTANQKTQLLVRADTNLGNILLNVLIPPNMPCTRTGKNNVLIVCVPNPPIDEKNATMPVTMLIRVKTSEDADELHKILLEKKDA
UniProt Q07002: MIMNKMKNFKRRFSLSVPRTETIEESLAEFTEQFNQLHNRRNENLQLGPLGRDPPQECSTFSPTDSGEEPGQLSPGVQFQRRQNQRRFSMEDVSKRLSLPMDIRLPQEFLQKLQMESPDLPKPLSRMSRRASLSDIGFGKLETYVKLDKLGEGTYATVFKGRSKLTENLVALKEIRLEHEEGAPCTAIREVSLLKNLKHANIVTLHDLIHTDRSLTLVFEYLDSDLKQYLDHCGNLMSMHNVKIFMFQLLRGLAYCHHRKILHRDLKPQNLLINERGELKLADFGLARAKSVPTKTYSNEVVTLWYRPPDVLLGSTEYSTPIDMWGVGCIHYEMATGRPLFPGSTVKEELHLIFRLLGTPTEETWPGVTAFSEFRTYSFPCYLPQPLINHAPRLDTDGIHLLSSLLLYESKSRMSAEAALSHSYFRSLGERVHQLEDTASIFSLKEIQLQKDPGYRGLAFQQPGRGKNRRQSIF
UniProt P20962: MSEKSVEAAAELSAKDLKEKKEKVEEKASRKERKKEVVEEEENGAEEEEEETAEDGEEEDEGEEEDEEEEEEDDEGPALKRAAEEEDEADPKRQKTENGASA
UniProt Q9P2N5: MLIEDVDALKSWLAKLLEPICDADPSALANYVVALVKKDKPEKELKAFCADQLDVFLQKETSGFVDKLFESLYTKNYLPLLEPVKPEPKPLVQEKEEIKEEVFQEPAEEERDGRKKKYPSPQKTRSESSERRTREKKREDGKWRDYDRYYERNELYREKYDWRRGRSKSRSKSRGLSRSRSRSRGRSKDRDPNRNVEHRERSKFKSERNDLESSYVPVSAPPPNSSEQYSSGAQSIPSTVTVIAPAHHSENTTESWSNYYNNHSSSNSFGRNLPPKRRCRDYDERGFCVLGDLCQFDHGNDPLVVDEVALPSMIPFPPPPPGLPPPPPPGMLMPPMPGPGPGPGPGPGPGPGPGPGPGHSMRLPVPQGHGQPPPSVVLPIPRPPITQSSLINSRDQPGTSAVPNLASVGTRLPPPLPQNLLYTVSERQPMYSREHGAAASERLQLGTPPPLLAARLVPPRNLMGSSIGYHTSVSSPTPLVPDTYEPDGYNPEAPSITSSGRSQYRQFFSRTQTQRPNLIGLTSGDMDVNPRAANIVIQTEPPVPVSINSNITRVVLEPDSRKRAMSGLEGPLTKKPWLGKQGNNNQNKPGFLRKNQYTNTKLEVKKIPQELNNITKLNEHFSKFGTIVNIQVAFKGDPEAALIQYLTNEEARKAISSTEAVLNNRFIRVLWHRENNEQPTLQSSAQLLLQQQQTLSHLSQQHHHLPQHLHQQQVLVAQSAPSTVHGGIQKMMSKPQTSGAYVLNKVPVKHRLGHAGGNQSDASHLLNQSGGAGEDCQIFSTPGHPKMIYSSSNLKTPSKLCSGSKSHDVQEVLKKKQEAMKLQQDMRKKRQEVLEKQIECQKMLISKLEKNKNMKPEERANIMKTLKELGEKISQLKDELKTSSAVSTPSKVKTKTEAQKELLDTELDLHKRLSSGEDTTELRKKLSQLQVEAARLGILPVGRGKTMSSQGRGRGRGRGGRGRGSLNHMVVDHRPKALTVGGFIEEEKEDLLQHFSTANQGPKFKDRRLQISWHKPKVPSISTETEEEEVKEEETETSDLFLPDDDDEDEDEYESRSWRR
UniProt P05387, whole entry: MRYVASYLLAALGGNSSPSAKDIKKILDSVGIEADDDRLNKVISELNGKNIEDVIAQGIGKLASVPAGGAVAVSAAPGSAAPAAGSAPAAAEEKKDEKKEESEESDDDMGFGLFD

Row | Target | phosphopeptide melting temperature shift [°C]
1 | ILF3 phosphosite_592 (phosphosite position: 592) (UniProt Q12906) | 1.23
2 | IPO5 phosphosite_827 (phosphosite position: 827) (UniProt O00410) | 0.325
3 | IRS2 phosphosite_1100 (phosphosite position: 1100) (UniProt Q9Y4H2) | 0.805 ± 0.77
4 | KPNA3 phosphosite_60 (phosphosite position: 60) (UniProt O00505) | 0.249
5 | LARP1 phosphosite_521 (phosphosite position: 521) (UniProt Q6PKG0) | 0.651
6 | LARP1 phosphosite_774 (phosphosite position: 774) (UniProt Q6PKG0) | 1.88
7 | LCP1 phosphosite_5 (phosphosite position: 5) (UniProt P13796) | 2.25
8 | LIMA1 phosphosite_15 (phosphosite position: 15) (UniProt Q9UHB6) | 0.558
9 | LIMA1 phosphosite_374 (phosphosite position: 374) (UniProt Q9UHB6) | 2.89
10 | LIMA1 phosphosite_490 (phosphosite position: 490) (UniProt Q9UHB6) | 3.3
11 | LMNA phosphosite_22 (phosphosite position: 22) (UniProt P02545) | 0.0962
12 | LMNA phosphosite_107 (phosphosite position: 107) (UniProt P02545) | 2.68
13 | MAP1B phosphosite_2072 (phosphosite position: 2072) (UniProt P46821) | -0.454 ± 0.58
14 | MAP4 phosphosite_696 (phosphosite position: 696) (UniProt P27816) | 1.63
15 | MCM2 phosphosite_41 (phosphosite position: 41) (UniProt P49736) | -1.54
16 | MCM3 phosphosite_674 (phosphosite position: 674) (UniProt P25205) | 3.05
17 | MECP2 phosphosite_360 (phosphosite position: 360) (UniProt P51608) | 0.331 ± 0.47
18 | MICAL3 phosphosite_977 (phosphosite position: 977) (UniProt Q7RTP6) | 0.903
19 | MICAL3 phosphosite_1649 (phosphosite position: 1649) (UniProt Q7RTP6) | 1.15
20 | MYO18A phosphosite_140 (phosphosite position: 140) (UniProt Q92614) | -1.02 ± 0.81
21 | NMD3 phosphosite_470 (phosphosite position: 470) (UniProt Q96D46) | 2.1
22 | NMT2 phosphosite_38 (phosphosite position: 38) (UniProt O60551) | 0.937
23 | NOL12 phosphosite_134 (phosphosite position: 134) (UniProt Q9UGY1) | -0.949
24 | NPM1 phosphosite_67 (phosphosite position: 67) (UniProt P06748) | 1.96
25 | NPM1 phosphosite_125 (phosphosite position: 125) (UniProt P06748) | 0.346 ± 2.1
26 | NRBP1 phosphosite_431 (phosphosite position: 431) (UniProt Q9UHY1) | -0.688
27 | NSFL1C phosphosite_114 (phosphosite position: 114) (UniProt Q9UNZ2) | -0.507 ± 0.9

Row | Target | phosphopeptide melting temperature shift [°C]
28 | NUCKS1 phosphosite_223 (phosphosite position: 223) (UniProt Q9H1E3) | 2.71
29 | NUF2 phosphosite_247 (phosphosite position: 247) (UniProt Q9BZD4) | 0.514
30 | NUMBL phosphosite_411 (phosphosite position: 411) (UniProt Q9Y6R0) | -1.17
31 | NUP50 phosphosite_221 (phosphosite position: 221) (UniProt Q9UKX7) | 2.67
32 | OPA1 phosphosite_566 (phosphosite position: 566) (UniProt O60313) | 0.513 ± 0.41
33 | PACSIN3 phosphosite_354 (phosphosite position: 354) (UniProt Q9UKS6) | 2.08
34 | PAK4 phosphosite_104 (phosphosite position: 104) (UniProt O96013) | 0.26 ± 1.2
35 | PCTK3 phosphosite_130 (phosphosite position: 130) (UniProt Q07002) | 0.689
36 | PGAM1 phosphosite_118 (phosphosite position: 118) (UniProt P18669) | 0.356
37 | POLR3C phosphosite_204 (phosphosite position: 204) (UniProt Q9BUI4) | -0.27
38 | PPIG phosphosite_413 (phosphosite position: 413) (UniProt Q13427) | -0.186
39 | PRKRA phosphosite_18 (phosphosite position: 18) (UniProt O75569) | 0.879
40 | PRPF3 phosphosite_619 (phosphosite position: 619) (UniProt O43395) | -0.538
41 | PRPF4B phosphosite_277 (phosphosite position: 277) (UniProt Q13523) | -0.629 ± 0.32
42 | PRPF4B phosphosite_849 (phosphosite position: 849) (UniProt Q13523) | 0.647
43 | PRPF38B phosphosite_320 (phosphosite position: 320) (UniProt Q5VTL8) | 0.756 ± 2.3
44 | PSAT1 phosphosite_331 (phosphosite position: 331) (UniProt Q9Y617) | -0.0626
45 | PTMS phosphosite_5 (phosphosite position: 5) (UniProt P20962) | -1.79
46 | PXN phosphosite_322 (phosphosite position: 322) (UniProt P49023) | 0.759
47 | RB1 phosphosite_807 (phosphosite position: 807) (UniProt P06400) | 4.16
48 | RBM6 phosphosite_891 (phosphosite position: 891) (UniProt P78332) | 0.239
49 | RBM27 phosphosite_120 (phosphosite position: 120) (UniProt Q9P2N5) | -0.0614
50 | RBM33 phosphosite_41 (phosphosite position: 41) (UniProt Q96EV2) | -2.18
51 | RBM33 phosphosite_765 (phosphosite position: 765) (UniProt Q96EV2) | 1.17
52 | RBMXL1 phosphosite_208 (phosphosite position: 208) (UniProt Q96E39) | 0.747
53 | RPLP2 phosphosite_102 (phosphosite position: 102) (UniProt P05387) | -0.828

Single entries from the results shown.
Value for NUMBL phosphosite_411 (phosphosite position: 411) (UniProt Q9Y6R0) under phosphopeptide melting temperature shift [°C]: -1.17
Value for RB1 phosphosite_807 (phosphosite position: 807) (UniProt P06400) under phosphopeptide melting temperature shift [°C]: 4.16

Reference: the supplement of paper PMC5836539
